Results are given in words; binding and its absence hold for the method and conditions named. Binding seen in cells or lysates may run through a third protein. Some binding calls cover weakened binding; strength is not graded here. Sequences can lack the tags named with a protein.

In assay [1] the target is T1, eYFP-SANS (USH1G protein SANS, scaffold protein containing ankyrin repeats and SAM domain) (human) (UniProt Q495M9).
T1 sequence: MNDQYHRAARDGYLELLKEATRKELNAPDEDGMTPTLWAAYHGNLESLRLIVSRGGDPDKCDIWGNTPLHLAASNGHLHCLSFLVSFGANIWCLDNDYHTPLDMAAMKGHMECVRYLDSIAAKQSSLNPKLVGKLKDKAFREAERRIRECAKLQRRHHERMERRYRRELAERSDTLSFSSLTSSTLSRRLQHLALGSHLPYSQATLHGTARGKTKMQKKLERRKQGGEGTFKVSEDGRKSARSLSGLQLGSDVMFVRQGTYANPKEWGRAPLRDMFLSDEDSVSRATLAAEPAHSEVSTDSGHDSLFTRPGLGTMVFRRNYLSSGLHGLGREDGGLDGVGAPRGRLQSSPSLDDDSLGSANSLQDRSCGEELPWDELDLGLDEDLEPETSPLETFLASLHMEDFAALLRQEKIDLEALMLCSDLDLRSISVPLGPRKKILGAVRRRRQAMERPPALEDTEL
In words: FRET or BRET; FRET acceptor photobleaching in fixed, co-transfected HEK293T cells; eCFP donor, eYFP acceptor; measured in the nucleus (harmonin pair in the cytoplasm); efficiencies normalised to the fused eCFP-c-eYFP pair where indicated.

In assay [2] the target is T1, eYFP-SANS (USH1G protein SANS, scaffold protein containing ankyrin repeats and SAM domain) (human). The experiment in a line: FRET or BRET; FRET acceptor photobleaching in fixed HEK293T cells, eCFP-eYFP pair with a third protein co-expressed (mRFP-SANS, PRPF6-mCherry or mRFP-PRPF31; mRFP alone as control).

B1: harmonin-eCFP (USH1C protein harmonin) (protein, UniProt Q9Y6N9 1-552)
chain: MDRKVAREFRHKVDFLIENDAEKDYLYDVLRMYHQTMDVAVLVGDLKLVINEPSRLPLFDAIRPLIPLKHQVEYDQLTPRRSRKLKEVRLDRLHPEGLGLSVRGGLEFGCGLFISHLIKGGQADSVGLQVGDEIVRINGYSISSCTHEEVINLIRTKKTVSIKVRHIGLIPVKSSPDEPLTWQYVDQFVSESGGVRGSLGSPGNRENKEKKVFISLVGSRGLGCSISSGPIQKPGIFISHVKPGSLSAEVGLEIGDQIVEVNGVDFSNLDHKEAVNVLKSSRSLTISIVAAAGRELFMTDRERLAEARQRELQRQELLMQKRLAMESNKILQEQQEMERQRRKEIAQKAAEENERYRKEMEQIVEEEEKFKKQWEEDWGSKEQLLLPKTITAEVHPVPLRKPKYDQGVEPELEPADDLDGGTEEQGEQDFRKYEEGFDPYSMFTPEQIMGKDVRLLRIKKEGSLDLALEGGVDSPIGKVVVSAVYERGAAERHGGIVKGDEIMAINGKIVTDYTLAEAEAALQKAWNQGGDWIDLVVAVCPPKEYDDELTFF
With B1, the binding entry in assay [1] is “binds”.

B2: PRPF6-eCFP (pre-mRNA processing factor PRPF6) (protein, UniProt O94906 1-941)
chain: MNKKKKPFLGMPAPLGYVPGLGRGATGFTTRSDIGPARDANDPVDDRHAPPGKRTVGDQMKKNQAADDDDEDLNDTNYDEFNGYAGSLFSSGPYEKDDEEADAIYAALDKRMDERRKERREQREKEEIEKYRMERPKIQQQFSDLKRKLAEVTEEEWLSIPEVGDARNKRQRNPRYEKLTPVPDSFFAKHLQTGENHTSVDPRQTQFGGLNTPYPGGLNTPYPGGMTPGLMTPGTGELDMRKIGQARNTLMDMRLSQVSDSVSGQTVVDPKGYLTDLNSMIPTHGGDINDIKKARLLLKSVRETNPHHPPAWIASARLEEVTGKLQVARNLIMKGTEMCPKSEDVWLEAARLQPGDTAKAVVAQAVRHLPQSVRIYIRAAELETDIRAKKRVLRKALEHVPNSVRLWKAAVELEEPEDARIMLSRAVECCPTSVELWLALARLETYENARKVLNKARENIPTDRHIWITAAKLEEANGNTQMVEKIIDRAITSLRANGVEINREQWIQDAEECDRAGSVATCQAVMRAVIGIGIEEEDRKHTWMEDADSCVAHNALECARAIYAYALQVFPSKKSVWLRAAYFEKNHGTRESLEALLQRAVAHCPKAEVLWLMGAKSKWLAGDVPAARSILALAFQANPNSEEIWLAAVKLESENDEYERARRLLAKARSSAPTARVFMKSVKLEWVQDNIRAAQDLCEEALRHYEDFPKLWMMKGQIEEQKEMMEKAREAYNQGLKKCPHSTPLWLLLSRLEEKIGQLTRARAILEKSRLKNPKNPGLWLESVRLEYRAGLKNIANTLMAKALQECPNSGILWSEAIFLEARPQRRTKSVDALKKCEHDPHVLLAVAKLFWSQRKITKAREWFHRTVKIDSDLGDAWAFFYKFELQHGTEEQQEEVRKRCESAEPRHGELWCAVSKDIANWQKKIGDILRLVAGRIKNTF
B2: the binding result in assay [1] and in assay [2] was “binds” in each case.

B3: eCFP-PRPF3 (protein, UniProt O43395 1-683)
chain: MALSKRELDELKPWIEKTVKRVLGFSEPTVVTAALNCVGKGMDKKKAADHLKPFLDDSTLRFVDKLFEAVEEGRSSRHSKSSSDRSRKRELKEVFGDDSEISKESSGVKKRRIPRFEEVEEEPEVIPGPPSESPGMLTKLQIKQMMEAATRQIEERKKQLSFISPPTPQPKTPSSSQPERLPIGNTIQPSQAATFMNDAIEKARKAAELQARIQAQLALKPGLIGNANMVGLANLHAMGIAPPKVELKDQTKPTPLILDEQGRTVDATGKEIELTHRMPTLKANIRAVKREQFKQQLKEKPSEDMESNTFFDPRVSIAPSQRQRRTFKFHDKGKFEKIAQRLRTKAQLEKLQAEISQAARKTGIHTSTRLALIAPKKELKEGDIPEIEWWDSYIIPNGFDLTEENPKREDYFGITNLVEHPAQLNPPVDNDTPVTLGVYLTKKEQKKLRRQTRREAQKELQEKVRLGLMPPPEPKVRISNLMRVLGTEAVQDPTKVEAHVRAQMAKRQKAHEEANAARKLTAEQRKVKKIKKLKEDISQGVHISVYRVRNLSNPAKKFKIEANAGQLYLTGVVVLHKDVNVVVVEGGPKAQKKFKRLMLHRIKWDEQTSNTKGDDDEESDEEAVKKTNKCVLVWEGTAKDRSFGEMKFKQCPTENMAREHFKKHGAEHYWDLALSESVLESTD
Consider B3, for which the binding result in assay [1] is “no binding”.

The values are drawn from PMC10744108.
